Data reported in PubChem BioAssay AID624291 (National Center for Advancing Translational Sciences (NCATS), 2012).
In all, about 350,000 compounds went through this assay and about 220 (0.063%) were called active. All entries are inconclusive by the source's own rule. Clear calls are listed elsewhere. Calls follow the shape of the dose curve; as a rule, active = well fitted activation curve with a large enough effect; inconclusive = small, poorly fitted or top-dose-only effect; inactive = no such curve, though single readings can be large or run the other way.
Potency is read from the fitted curve at half-maximal effect.

Experiment: qHTS for Activators of Integrin-Mediated Alleviation for Muscular Dystrophy; also: nearly all actives have a fitted effect of over 60% in size
Conditions: alpha7betagal myoblasts, beta-gal FDG fluorescence, 48 h
In the case of `COc1ccc(Cl)cc1C(=O)NCC1(N2CCOCC2)CCCCC1`, the Potency is reported as inconclusive: 5.01 µM.
With `O=C(NCC1(N2CCCCC2)CCCCC1)c1ccco1` the Potency was inconclusive: 5.01 µM.
